Experimental data reported in the supplement of paper PMC10849652.
The list shows a part of the results.

By UniProt entry, the sequences of proteins in these tests, tags left out. Where a name states a change or a piece, a line headed by the entry shows the natural chain unless it says otherwise.
UniProt Q9UQR0: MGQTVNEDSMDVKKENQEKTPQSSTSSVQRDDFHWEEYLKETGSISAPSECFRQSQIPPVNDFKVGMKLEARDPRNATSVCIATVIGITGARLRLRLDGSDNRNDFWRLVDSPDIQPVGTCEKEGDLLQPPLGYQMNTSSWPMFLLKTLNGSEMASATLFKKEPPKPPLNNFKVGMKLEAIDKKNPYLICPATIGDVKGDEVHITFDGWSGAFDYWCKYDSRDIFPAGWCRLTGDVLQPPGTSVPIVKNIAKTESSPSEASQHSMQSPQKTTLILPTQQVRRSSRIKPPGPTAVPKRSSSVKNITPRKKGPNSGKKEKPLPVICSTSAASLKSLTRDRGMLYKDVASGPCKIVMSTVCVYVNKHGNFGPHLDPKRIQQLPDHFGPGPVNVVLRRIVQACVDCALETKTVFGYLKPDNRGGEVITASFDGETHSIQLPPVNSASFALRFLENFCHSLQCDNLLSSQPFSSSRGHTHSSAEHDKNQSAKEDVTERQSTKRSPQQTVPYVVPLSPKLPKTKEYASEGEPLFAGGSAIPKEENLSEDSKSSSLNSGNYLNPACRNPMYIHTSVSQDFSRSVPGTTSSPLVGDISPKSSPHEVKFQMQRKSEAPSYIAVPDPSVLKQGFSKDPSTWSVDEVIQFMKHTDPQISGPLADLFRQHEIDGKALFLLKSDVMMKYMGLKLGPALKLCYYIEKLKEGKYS
UniProt Q5VUM1: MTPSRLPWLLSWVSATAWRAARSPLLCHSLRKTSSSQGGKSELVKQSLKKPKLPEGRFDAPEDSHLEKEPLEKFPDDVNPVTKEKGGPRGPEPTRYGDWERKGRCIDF
UniProt Q9HCN8: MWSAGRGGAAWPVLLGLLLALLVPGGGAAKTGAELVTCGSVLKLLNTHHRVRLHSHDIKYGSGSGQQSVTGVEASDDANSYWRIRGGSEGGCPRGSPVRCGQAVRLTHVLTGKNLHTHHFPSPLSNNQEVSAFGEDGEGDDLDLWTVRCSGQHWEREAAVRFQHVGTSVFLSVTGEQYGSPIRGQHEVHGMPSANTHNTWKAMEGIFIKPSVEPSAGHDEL
UniProt Q9UHD8: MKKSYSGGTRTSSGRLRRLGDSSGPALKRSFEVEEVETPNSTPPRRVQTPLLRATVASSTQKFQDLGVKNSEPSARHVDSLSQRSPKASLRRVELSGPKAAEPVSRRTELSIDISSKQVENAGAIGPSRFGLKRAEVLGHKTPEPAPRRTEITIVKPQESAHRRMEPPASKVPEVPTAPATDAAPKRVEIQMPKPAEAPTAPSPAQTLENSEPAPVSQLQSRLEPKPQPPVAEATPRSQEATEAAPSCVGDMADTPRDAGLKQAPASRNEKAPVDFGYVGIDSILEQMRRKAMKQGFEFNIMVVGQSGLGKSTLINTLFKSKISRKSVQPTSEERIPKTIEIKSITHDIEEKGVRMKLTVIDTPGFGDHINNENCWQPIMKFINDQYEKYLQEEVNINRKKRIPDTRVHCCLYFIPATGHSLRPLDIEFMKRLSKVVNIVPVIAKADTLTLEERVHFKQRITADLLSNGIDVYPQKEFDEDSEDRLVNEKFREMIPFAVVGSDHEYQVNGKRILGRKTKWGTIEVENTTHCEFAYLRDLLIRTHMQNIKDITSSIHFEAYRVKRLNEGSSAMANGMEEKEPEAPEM
UniProt Q92503: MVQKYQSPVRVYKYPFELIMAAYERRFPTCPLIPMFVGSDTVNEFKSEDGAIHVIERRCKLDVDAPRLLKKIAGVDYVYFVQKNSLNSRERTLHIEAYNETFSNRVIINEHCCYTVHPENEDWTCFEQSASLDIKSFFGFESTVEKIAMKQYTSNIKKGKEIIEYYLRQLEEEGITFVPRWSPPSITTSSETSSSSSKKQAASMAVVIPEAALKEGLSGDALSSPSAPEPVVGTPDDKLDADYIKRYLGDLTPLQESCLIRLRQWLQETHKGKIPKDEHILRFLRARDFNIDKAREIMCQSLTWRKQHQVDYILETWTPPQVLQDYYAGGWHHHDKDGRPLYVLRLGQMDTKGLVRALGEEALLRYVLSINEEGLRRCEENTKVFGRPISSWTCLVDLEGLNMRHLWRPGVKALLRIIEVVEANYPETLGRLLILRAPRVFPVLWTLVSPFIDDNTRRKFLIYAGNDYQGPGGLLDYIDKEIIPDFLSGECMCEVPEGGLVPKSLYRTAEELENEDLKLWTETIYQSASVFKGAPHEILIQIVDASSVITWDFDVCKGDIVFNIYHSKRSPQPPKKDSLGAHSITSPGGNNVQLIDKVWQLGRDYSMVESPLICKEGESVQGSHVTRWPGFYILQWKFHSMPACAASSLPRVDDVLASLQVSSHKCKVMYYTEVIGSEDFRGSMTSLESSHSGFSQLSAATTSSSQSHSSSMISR
UniProt Q9BRK5: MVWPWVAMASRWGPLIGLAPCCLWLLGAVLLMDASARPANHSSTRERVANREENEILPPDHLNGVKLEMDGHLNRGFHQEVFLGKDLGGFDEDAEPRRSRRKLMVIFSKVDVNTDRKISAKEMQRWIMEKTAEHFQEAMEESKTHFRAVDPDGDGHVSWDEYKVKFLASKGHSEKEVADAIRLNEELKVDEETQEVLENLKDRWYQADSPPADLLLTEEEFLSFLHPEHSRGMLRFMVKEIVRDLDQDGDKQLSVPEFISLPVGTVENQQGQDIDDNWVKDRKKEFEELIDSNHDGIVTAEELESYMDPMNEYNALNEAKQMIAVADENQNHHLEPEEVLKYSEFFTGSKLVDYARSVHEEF
UniProt Q9NTN9: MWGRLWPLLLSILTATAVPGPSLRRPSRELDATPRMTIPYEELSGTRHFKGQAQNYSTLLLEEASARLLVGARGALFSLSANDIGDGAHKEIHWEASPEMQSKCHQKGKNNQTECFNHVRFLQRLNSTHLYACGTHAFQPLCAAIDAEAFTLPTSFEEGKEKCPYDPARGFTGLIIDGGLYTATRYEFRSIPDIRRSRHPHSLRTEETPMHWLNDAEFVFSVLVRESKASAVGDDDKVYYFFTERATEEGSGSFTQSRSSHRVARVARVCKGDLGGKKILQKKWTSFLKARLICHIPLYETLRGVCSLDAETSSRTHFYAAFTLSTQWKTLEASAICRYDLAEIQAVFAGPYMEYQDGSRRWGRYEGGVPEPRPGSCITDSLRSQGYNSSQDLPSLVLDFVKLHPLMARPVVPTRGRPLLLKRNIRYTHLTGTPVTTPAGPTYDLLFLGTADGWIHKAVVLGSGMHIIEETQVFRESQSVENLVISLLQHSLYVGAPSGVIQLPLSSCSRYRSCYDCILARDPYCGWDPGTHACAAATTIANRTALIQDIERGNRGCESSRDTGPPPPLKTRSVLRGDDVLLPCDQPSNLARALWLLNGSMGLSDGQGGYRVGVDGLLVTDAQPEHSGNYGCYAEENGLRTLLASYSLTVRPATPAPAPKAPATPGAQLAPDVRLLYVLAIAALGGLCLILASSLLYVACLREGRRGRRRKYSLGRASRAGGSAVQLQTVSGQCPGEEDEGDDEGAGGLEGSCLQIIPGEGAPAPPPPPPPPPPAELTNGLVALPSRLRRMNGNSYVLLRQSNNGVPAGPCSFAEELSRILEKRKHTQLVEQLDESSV
UniProt O15126: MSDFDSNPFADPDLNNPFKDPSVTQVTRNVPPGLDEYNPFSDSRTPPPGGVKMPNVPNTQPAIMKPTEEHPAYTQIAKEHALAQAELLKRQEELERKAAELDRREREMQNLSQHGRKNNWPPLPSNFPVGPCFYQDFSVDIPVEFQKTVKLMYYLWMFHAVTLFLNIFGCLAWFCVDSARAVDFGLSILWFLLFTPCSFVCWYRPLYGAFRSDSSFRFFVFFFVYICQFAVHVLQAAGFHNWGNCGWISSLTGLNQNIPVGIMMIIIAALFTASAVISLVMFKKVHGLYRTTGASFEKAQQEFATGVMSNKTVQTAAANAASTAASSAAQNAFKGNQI
UniProt Q9NR31: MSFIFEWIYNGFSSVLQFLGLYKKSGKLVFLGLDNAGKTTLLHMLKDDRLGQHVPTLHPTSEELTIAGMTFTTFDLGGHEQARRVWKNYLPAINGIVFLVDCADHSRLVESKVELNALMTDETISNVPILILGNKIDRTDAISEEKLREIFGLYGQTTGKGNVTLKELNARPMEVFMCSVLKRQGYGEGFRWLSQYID
UniProt Q9H7N4: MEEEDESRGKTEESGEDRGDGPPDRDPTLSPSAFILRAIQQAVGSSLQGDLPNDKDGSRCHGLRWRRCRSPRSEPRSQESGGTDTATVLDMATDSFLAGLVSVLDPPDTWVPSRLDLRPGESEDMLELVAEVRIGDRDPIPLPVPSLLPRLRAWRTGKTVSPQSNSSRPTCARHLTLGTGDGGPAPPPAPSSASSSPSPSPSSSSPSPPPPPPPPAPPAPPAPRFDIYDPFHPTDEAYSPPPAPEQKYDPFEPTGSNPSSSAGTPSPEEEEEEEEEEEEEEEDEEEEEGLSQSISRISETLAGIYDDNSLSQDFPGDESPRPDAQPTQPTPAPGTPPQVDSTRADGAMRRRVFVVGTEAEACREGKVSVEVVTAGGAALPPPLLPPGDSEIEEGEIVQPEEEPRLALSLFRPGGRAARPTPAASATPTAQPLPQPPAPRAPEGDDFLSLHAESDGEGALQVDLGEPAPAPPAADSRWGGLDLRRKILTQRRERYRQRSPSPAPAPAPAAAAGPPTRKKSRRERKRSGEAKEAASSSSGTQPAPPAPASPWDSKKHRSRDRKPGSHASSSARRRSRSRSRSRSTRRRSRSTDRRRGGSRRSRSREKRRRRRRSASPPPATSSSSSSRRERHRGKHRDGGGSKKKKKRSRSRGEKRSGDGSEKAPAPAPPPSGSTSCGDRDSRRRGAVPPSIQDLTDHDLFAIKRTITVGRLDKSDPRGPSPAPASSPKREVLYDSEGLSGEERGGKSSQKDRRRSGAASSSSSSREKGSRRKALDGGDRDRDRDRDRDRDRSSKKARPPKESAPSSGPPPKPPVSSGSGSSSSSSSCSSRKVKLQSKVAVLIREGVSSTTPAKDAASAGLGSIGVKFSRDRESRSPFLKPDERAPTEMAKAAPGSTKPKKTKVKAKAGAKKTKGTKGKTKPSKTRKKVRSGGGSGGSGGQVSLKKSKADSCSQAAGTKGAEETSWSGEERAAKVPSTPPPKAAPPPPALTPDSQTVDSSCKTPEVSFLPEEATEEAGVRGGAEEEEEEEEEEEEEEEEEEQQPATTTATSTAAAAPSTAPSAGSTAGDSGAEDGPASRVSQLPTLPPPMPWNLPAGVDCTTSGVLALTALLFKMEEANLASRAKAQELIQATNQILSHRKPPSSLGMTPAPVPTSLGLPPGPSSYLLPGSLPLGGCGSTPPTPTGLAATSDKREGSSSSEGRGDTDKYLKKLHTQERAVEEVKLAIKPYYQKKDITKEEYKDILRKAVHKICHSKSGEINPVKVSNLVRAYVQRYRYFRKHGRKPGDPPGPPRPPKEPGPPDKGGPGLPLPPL
UniProt P60059: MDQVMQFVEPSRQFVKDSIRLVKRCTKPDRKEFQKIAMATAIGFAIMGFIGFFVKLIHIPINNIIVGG
UniProt Q9GZR1: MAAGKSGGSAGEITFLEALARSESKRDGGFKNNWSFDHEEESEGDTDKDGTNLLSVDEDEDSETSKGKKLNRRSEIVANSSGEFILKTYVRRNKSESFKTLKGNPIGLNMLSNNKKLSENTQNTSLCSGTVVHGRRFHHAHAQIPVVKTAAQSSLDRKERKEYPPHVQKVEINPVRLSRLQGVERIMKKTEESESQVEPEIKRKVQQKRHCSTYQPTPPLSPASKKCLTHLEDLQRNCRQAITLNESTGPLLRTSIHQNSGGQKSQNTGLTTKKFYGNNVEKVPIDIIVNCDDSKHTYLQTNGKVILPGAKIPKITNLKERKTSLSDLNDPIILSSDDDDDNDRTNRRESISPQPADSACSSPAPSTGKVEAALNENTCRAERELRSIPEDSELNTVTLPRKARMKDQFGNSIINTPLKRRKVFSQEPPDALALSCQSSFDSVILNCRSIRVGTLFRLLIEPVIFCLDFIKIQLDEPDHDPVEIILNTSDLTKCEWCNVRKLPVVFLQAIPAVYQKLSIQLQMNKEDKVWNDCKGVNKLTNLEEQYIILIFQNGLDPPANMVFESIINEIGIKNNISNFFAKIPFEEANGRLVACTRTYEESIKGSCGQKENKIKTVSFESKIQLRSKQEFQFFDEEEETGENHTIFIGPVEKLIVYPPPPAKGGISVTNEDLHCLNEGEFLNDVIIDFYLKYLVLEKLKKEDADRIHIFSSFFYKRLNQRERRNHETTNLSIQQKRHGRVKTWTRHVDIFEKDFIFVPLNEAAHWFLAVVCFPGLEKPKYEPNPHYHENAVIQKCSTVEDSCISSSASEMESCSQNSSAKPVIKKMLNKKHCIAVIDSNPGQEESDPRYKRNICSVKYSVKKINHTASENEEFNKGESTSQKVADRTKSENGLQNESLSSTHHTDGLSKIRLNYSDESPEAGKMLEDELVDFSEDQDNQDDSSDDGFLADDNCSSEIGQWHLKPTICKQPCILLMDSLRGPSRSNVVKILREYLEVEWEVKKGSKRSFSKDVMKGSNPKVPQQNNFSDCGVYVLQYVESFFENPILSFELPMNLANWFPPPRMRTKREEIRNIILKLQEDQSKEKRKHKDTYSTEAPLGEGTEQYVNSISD

Tests used:
Assay in all cases: log2 fold change, soluble protein after heating vs DMSO (PISA); higher = thermal stabilisation; K562 lysate, 10 uM; active = over 0.2 and 3.5 SD of the protein, either way, in both replicates (recomputed)
[1] = compound: NCC(=O)Nc1ccc(-n2nc(C(F)(F)F)cc2-c2ccc3c(ccc4ccccc43)c2)cc1
Method in brief: (§1)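 The values are log-two fold changes in thermal stability compared with solvent controls and come from duplicates. They were obtained by TMTpro 16plex LC-MS/MS, with channel sums equalised, on the supernatant after 21,000xg for 90 min. That supernatant came from crude K562 extract at 1 mg/mL protein treated with 10 μM compound for 30 min, heated for 3 min across 48°C-58°C, pooled and brought to 0.5% NP-40 at 4°C.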

vorinostat = compound: O=C(CCCCCCC(=O)Nc1ccccc1)NO [vorinostat]
Method in brief: as §1

silmitasertib = compound: O=C(O)c1ccc2c(c1)nc(Nc1cccc(Cl)c1)c1ccncc12 [silmitasertib]
Method in brief: as §1

[2] = compound: O=C1NC(=O)C(c2cnc3ccccn23)=C1c1cn2c3c(cc(F)cc13)CN(C(=O)N1CCCCC1)CC2
Method in brief: as §1

entospletinib = compound: c1cn2cc(-c3ccc4cn[nH]c4c3)nc(Nc3ccc(N4CCOCC4)cc3)c2n1 [entospletinib]
Method in brief: as §1

Target	log2 fold change [1]	log2 fold change (vorinostat)	log2 fold change (silmitasertib)	log2 fold change [2]	log2 fold change (entospletinib)
SCML2 (UniProt Q9UQR0)	inactive: -0.099	active: -0.243	inactive: 0.039	inactive: 0.037	inactive: 0.007
SDHAF4 (UniProt Q5VUM1)	inactive: -0.144	inactive: 0.121	inactive: -0.045	inactive: -0.075	inactive: -0.037
SDHB, A0A087WXX8	inactive: 0.021	–	–	–	–
SDSL (UniProt Q96GA7)	inactive: -0.031	inactive: 0.108	inactive: 0	inactive: 0.111	inactive: 0.004
SDF2L1 (UniProt Q9HCN8)	inactive: 0.01	inactive: 0.094	inactive: -0.023	inactive: -0.006	inactive: 0
SDE2 (UniProt Q6IQ49)	inactive: 0.034	inactive: -0.038	inactive: 0.013	inactive: -0.039	inactive: 0.024
SCAMP4 (UniProt Q969E2)	inactive: 0.009	inactive: 0.103	inactive: -0.07	inactive: 0.069	inactive: 0.034
SEPTIN9 (UniProt Q9UHD8)	inactive: 0.005	inactive: 0.013	inactive: -0.022	inactive: -0.006	inactive: -0.01
SEC11C (UniProt Q9BY50)	inactive: 0.108	inactive: 0.106	inactive: -0.062	inactive: -0.039	–
SEC14L1 isoform 2 (UniProt Q92503)	inactive: 0.267	–	–	–	–
SCYL1 (UniProt Q96KG9)	inactive: 0.004	inactive: -0.033	inactive: -0.01	inactive: -0.014	inactive: 0.016
SEPTIN5 (UniProt Q99719)	inactive: -0.008	inactive: 0.005	inactive: 0.011	inactive: -0.028	inactive: 0.009
SDF4 (UniProt Q9BRK5)	inactive: 0.006	inactive: 0.122	inactive: 0.004	inactive: 0.013	inactive: 0.001
SENP8 (UniProt Q96LD8)	inactive: 0.141	inactive: -0.006	inactive: 0.049	inactive: 0.019	inactive: -0.118
SDAD1 (UniProt Q9NVU7)	inactive: -0.035	inactive: 0.092	inactive: 0.021	inactive: 0.006	inactive: 0.021
SEC24D isoform 2 (UniProt O94855)	inactive: -0.017	active: -0.251	inactive: 0.037	inactive: -0.013	inactive: -0.003
SEL1L3 (UniProt Q68CR1)	inactive: 0.05	inactive: 0.068	inactive: -0.052	inactive: 0.002	inactive: 0.057
SCAMP3 isoform 2 (UniProt O14828)	inactive: -0.094	inactive: 0.085	inactive: -0.034	inactive: -0.353	inactive: 0.166
SAMSN1 (UniProt Q9NSI8)	inactive: 0.003	inactive: 0.04	inactive: -0.001	inactive: -0.011	inactive: 0.002
SDHB (UniProt P21912)	inactive: -0.018	inactive: 0.113	inactive: -0.029	inactive: -0.002	inactive: -0.014
SELENBP1 isoform 4 (UniProt Q13228)	inactive: 0.008	inactive: 0.115	inactive: 0.017	inactive: -0.002	inactive: 0.002
SDCCAG8 (UniProt Q86SQ7)	inactive: 0.059	inactive: -0.075	inactive: 0.023	inactive: 0.027	inactive: -0.018
SENP3 (UniProt Q9H4L4)	inactive: 0.143	inactive: -0.128	inactive: 0.044	inactive: 0	inactive: 0.045
SCLY (UniProt Q96I15)	inactive: 0.005	inactive: 0.102	inactive: -0.002	inactive: -0.013	inactive: 0.004
SBNO1 (UniProt A3KN83)	inactive: -0.002	inactive: 0.002	inactive: -0.002	inactive: -0.02	inactive: 0.002
SEMA4G isoform 2 (UniProt Q9NTN9)	inactive: 0.078	active: -0.513	inactive: 0.172	inactive: 0.103	inactive: -0.09
SEC62 (UniProt Q99442)	inactive: 0.036	inactive: 0.133	inactive: 0.015	inactive: 0.007	inactive: -0.019

Only log2 fold change (silmitasertib) (3 entries from above):
Target | log2 fold change (silmitasertib)
SAMSN1 (UniProt Q9NSI8) | inactive: -0.001
SDHB (UniProt P21912) | inactive: -0.029
SELENBP1 isoform 4 (UniProt Q13228) | inactive: 0.017

Reprinted from the results shown (2 entries):
Target	log2 fold change [1]	log2 fold change (vorinostat)	log2 fold change (silmitasertib)	log2 fold change [2]	log2 fold change (entospletinib)
SCLY (UniProt Q96I15)	inactive: 0.005	inactive: 0.102	inactive: -0.002	inactive: -0.013	inactive: 0.004
SBNO1 (UniProt A3KN83)	inactive: -0.002	inactive: 0.002	inactive: -0.002	inactive: -0.02	inactive: 0.002

Following part.

Target	log2 fold change [1]	log2 fold change (vorinostat)	log2 fold change (silmitasertib)	log2 fold change [2]	log2 fold change (entospletinib)
SCAMP1 (UniProt O15126)	inactive: 0.023	inactive: 0.055	inactive: -0.03	inactive: 0.218	inactive: -0.03
SAMM50 (UniProt Q9Y512)	inactive: -0.002	inactive: -0.001	inactive: 0.014	inactive: -0.01	inactive: 0.009
SEPTIN5 (UniProt G3XAH0)	inactive: 0.015	inactive: -0.049	inactive: 0.039	inactive: -0.031	inactive: -0.003
SART3, A0A499FI31	inactive: -0.019	inactive: -0.142	inactive: 0.014	inactive: -0.003	inactive: 0.022
SEC24A (UniProt O95486)	inactive: 0.027	inactive: -0.057	inactive: -0.015	inactive: -0.024	inactive: -0.011
S100PBP (UniProt Q96BU1)	inactive: -0.209	inactive: -0.077	inactive: 0.04	inactive: -0.025	inactive: 0.049
SCFD1 (UniProt Q8WVM8)	inactive: 0.009	inactive: -0.005	inactive: 0.027	inactive: -0.02	inactive: 0.018
SCIN (UniProt Q9Y6U3)	inactive: 0.02	inactive: 0.117	inactive: 0.001	inactive: -0.007	inactive: -0.002
SCYL3 isoform 2 (UniProt Q8IZE3)	inactive: -0.014	inactive: -0.053	inactive: 0.046	inactive: 0.028	inactive: 0.035
SAR1B (UniProt Q9Y6B6)	inactive: -0.083	inactive: 0.155	inactive: -0.103	inactive: -0.044	inactive: -0.053
SAMD4B (UniProt Q5PRF9)	inactive: 0.022	inactive: -0.096	inactive: 0.046	inactive: 0.038	inactive: -0.062
SEPTIN6 (UniProt Q14141)	inactive: -0.075	inactive: 0.067	inactive: -0.016	inactive: 0	inactive: 0.004
SEC63 (UniProt Q9UGP8)	inactive: 0.023	inactive: 0.068	inactive: -0.015	inactive: 0.001	inactive: -0.022
SAR1A (UniProt Q9NR31)	inactive: 0.004	inactive: 0.056	inactive: -0.077	inactive: -0.039	inactive: -0.089
SDHAF3 (UniProt Q9NRP4)	inactive: -0.079	inactive: -0.199	inactive: -0.02	inactive: -0.052	inactive: 0.001
SCAF1 (UniProt Q9H7N4)	inactive: -0.172	inactive: -0.076	inactive: 0.042	inactive: -0.04	inactive: 0.025
SEC11A (UniProt P67812)	inactive: -0.041	inactive: 0.143	inactive: 0.005	inactive: -0.06	inactive: 0.001
SBF1 isoform 4 (UniProt O95248)	inactive: 0.013	active: -0.377	inactive: -0.046	inactive: 0.056	inactive: 0.005
SEPTIN7 (UniProt Q16181)	inactive: -0.005	inactive: 0.07	inactive: -0.002	inactive: -0.023	inactive: -0.007
SAE1 (UniProt Q9UBE0)	inactive: 0.004	inactive: 0.054	inactive: -0.006	inactive: 0.02	inactive: 0.007
SARG (UniProt Q9BW04)	inactive: 0.022	inactive: 0.015	inactive: -0.1	inactive: -0.007	inactive: 0.015
SCFD2 (UniProt Q8WU76)	inactive: 0.012	inactive: -0.073	inactive: 0.043	inactive: -0.018	inactive: -0.046
SCAF11 (UniProt Q99590)	inactive: 0.066	inactive: 0.045	inactive: -0.039	inactive: -0.073	inactive: -0.014
SEC61G (UniProt P60059)	inactive: -0.047	inactive: 0.005	inactive: 0.013	inactive: 0.232	inactive: -0.034
SENP6 (UniProt Q9GZR1)	inactive: 0.039	inactive: -0.148	inactive: 0.078	inactive: -0.011	inactive: -0.079
SEC31A (UniProt D6REX3)	inactive: -0.025	inactive: 0.017	inactive: 0.007	inactive: -0.003	inactive: 0.008
SAP18 isoform 2 (UniProt O00422)	inactive: 0.033	inactive: 0.024	inactive: 0.057	inactive: 0.015	inactive: 0.037
